The data set relates to GST-OsbZIP48 (Oryza sativa cv. Nipponbare). The data set can be described thus: EMSA.

The exact form of at least one protein or probe is not confirmed.

Consider 2 sequences from publication doi:10.1101/2023.05.18.541251.

For the sequence “AGGAGAGGTTAACATCGACACCGCCGTCGACCTCAACA (double strand) [EM-ZIP4 (OsZIP4 promoter ZDRE probe)]”, the binding result is “binds”.

With “CTTCTTATTTACTAATTTCTTCTCTCTCTGTCGACGTCAGGAAAATACTACAAATCAGCAGCCTGGTGGATTGGACG (double strand) [EM-ZIP8 (OsZIP8 promoter ZDRE probe)]”, the binding result is listed as “binds”.
